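Luminescence from an EWS-FLI1 target-promoter (NR0B1) reporter, set against a CMV-promoter reporter, two days after silencing single genes in TC32 Ewing sarcoma cells. Each siRNA was applied at 20 nM. A z-score of the log NR0B1-over-CMV signal, less the median of siRNAs with the same seed; more negative means a stronger specific loss of the NR0B1 reporter.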

This is part of the screen; most of the strongest results are not listed here. Sequences are the guide (antisense) strand, without overhang.

siRNA,gene,seed-corrected z-score
UAGCGGUCCGCAGCAAUCA,MC2R,0.1151
UAAUUCUCUUCUUUAGGUG,TAS2R19,0.6201
UACCAGGUCAGGUUUUACC,DTX4,-0.1231
ACACUGUCUAUUGAAAGGG,PRDX6,-1.813
UCUCUAAGCAGUAAAUGAC,LOC646804,-0.01449
UUGGUGUAGAAGUUCAGUG,ADAMTS9,-0.2322
UACUUGAUAUGGAAGGUCG,MTPAP,-0.5552
UACAUUUUGCAGCUCAUCA,CLDN7,-0.5579
UUUCAUAAUCUAGCACAGC,GID8,-0.01121
UCUUUUGCAGAGUAGUUCG,CCDC68,-0.1587
UCCUCUUCAUCGAAGAAGC,FAM89A,-0.3559
AACCGCUUUACAGCCUUCC,WNT2,-0.9809
UUGAUUUUUAGCGUAUCCG,B3GNTL1,-0.02186
UUGUCAUACAGCUGCGUCC,TMED9,0.1032
UCAUGAUUUCAAUUACUUC,HNRNPA1L2,1.907
UGAAGUUAAAAGUCCAAAG,TSPAN19,-0.4785
AGAUUGCACACGAAGAAGC,TM6SF2,0.3623
AUGGUGAAAAUCCUGAUUG,RBM7,-0.4975
UGUGCUCUCUAUUUCUGCC,CXorf67,-0.2381
UCCACGUUCAGGUAGAUGG,PFKFB3,-0.1554
AGACAUAUUAAGAUGAGAC,PLN,0.2985
UAUGAAGCCACGUGGACGC,PLD4,0.5389
UUGGUGUAGAGCAUCUGCU,ARHGAP27,-0.2418
ACAUUUAUUUGUCUGAGGC,STOML1,1.649
AAAUCAAGUCAGUAGAUGC,MLF2,0.243
UCUGCUGUUCCUAAGCUGC,ALYREF,0.7378
UGAUUGAAUAGGGAACAAG,HSPA4L,-0.07502
UCCAUAUCCACAUUGAGGC,SYTL4,0.09943
UCUCGAAUCAUUUCCAGUC,RTCA,0.4463
UAAGUACUCGAUGCCUUUG,CAMKK2,-0.5505
AAUCAGACUCAUUUCAUCG,P4HTM,0.1985
AGAUCAAUCUCAUUGGUGC,CHRNG,-0.9518
UUCUUGCUGAGGAAUGUGA,RNF222,-0.3327
UCUAGAGAGACGGAUUUGG,CCDC129,-0.05365
UAAGGAGAAGCCGUAACUG,C16orf91,-0.5475
UCACGUUUCACCUCAUCAG,F5,0.8113
UUAGUAACUCCUCAGAGUG,ITGAE,-0.2479
UAUGCAAAUGACGUGGGCG,PYY,0.02376
AAUAGUAUCGUCUAUUUUG,WDR82P1,-0.1384
UGACAGACCACGUGCUUCG,FLJ13224,-0.5331
AACGAAUAAAGCUUGCUCC,MYO6,-0.4914
UACACGAUCAUGUAGUCCU,ATCAY,0.7177
UAGUACUUCACCUUGACUG,TRIM32,-0.02666
UCAUGAAUGAAGGUCAUGU,RAPGEF3,0.3455
UAACCCAACCUGAUCAGCC,CWH43,0.485
AAAGAAUAAAGAGGCUUUG,PTBP1,-0.5971
UGACGUGUAGGAACUGCCG,FRMD1,-0.08582

The first 4 entries again:

* UAGCGGUCCGCAGCAAUCA against MC2R : seed-corrected z-score 0.1151
* UAAUUCUCUUCUUUAGGUG against TAS2R19 : seed-corrected z-score 0.6201
* UACCAGGUCAGGUUUUACC against DTX4 : seed-corrected z-score -0.1231
* ACACUGUCUAUUGAAAGGG against PRDX6 : seed-corrected z-score -1.813

Source: PubChem BioAssay AID1159506 (NCATS, 2015).